Consider two substances from paper PMC10799901.

Sequences of proteins named here, by UniProt entry; tags and fusion partners are left off. A change or cut given only in a name is not applied to a line headed by its entry.
UniProt Q9WTL8: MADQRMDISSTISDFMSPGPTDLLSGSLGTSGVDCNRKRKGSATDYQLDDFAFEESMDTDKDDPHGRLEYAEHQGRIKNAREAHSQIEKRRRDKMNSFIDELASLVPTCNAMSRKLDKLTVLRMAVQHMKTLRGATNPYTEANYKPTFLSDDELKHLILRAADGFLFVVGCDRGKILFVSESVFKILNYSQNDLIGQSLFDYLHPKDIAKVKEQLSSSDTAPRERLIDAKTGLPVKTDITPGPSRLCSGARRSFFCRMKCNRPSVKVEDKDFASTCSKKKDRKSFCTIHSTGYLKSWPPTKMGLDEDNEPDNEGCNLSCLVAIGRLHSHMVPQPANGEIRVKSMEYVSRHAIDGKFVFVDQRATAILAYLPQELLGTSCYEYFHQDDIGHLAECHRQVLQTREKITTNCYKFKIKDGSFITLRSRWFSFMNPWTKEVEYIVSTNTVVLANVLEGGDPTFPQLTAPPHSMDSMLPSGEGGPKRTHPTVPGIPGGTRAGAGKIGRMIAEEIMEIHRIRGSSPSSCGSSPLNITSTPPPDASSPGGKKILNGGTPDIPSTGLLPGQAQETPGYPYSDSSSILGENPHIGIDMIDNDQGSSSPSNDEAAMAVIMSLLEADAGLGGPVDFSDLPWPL
UniProt P57780: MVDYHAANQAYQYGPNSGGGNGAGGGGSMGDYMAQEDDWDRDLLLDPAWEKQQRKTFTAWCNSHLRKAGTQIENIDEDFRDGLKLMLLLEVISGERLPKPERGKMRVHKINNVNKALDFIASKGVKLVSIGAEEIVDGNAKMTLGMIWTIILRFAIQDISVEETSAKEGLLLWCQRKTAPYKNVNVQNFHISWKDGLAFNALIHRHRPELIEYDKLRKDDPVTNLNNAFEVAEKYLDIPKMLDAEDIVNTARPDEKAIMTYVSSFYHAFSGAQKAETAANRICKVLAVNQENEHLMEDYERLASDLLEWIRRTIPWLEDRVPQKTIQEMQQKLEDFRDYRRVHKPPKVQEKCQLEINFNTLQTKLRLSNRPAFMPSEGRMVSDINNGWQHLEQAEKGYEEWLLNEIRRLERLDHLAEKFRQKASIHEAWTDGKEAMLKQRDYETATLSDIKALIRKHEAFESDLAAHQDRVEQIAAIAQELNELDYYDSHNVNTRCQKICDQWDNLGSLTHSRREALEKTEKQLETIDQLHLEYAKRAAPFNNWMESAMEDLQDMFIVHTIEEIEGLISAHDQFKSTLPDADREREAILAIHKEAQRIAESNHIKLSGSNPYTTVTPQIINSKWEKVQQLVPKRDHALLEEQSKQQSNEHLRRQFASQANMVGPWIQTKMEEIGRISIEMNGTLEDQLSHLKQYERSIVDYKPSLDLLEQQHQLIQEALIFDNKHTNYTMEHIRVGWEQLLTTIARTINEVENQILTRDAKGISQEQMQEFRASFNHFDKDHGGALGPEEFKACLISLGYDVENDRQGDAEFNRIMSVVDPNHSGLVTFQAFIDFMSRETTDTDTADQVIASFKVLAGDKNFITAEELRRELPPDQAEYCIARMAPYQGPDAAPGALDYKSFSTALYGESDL
UniProt Q61188: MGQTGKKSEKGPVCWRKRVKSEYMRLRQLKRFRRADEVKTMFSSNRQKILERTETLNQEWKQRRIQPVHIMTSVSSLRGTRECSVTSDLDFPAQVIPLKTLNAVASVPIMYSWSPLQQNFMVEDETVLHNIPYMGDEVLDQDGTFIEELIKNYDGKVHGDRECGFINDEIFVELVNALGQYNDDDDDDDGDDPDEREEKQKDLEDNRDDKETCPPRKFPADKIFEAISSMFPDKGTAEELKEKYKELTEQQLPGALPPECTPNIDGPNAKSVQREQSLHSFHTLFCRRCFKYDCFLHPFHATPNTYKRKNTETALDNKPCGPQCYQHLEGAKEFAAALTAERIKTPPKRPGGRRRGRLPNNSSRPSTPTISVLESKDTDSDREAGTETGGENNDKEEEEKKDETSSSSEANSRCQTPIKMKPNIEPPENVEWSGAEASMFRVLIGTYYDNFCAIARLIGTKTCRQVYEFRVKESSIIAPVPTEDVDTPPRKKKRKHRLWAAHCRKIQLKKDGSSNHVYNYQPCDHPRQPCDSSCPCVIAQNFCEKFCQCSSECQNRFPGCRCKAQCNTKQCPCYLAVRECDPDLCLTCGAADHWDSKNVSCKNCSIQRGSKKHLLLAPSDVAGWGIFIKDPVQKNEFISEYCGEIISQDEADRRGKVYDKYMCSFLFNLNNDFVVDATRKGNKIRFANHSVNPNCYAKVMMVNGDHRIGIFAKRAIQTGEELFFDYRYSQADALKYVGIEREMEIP

These are yes or no findings as the source states them, for the method shown. In cells and extracts the contact can be indirect. Binding can be weak; no strength is given.

The target of the test is dHLH-Bmal1, Bmal1 mutant lacking the basic helix-loop-helix DNA binding domain (UniProt Q9WTL8). Description: co-IP; cells cross-linked with 1% formaldehyde for 10 min; nuclear extract in high salt nuclear extraction buffer (10 mM HEPES pH 8.0, 0.2 M NaCl); BMAL1 antibody or normal rabbit IgG, protein A beads; immunoblot. Background: A western blot detects proteins with antibodies after separation by electrophoresis.

With “Actinin 4 (Actn4), endogenous (from UniProt P57780 1-912)”, the binding entry is on record as “binds”.

With “Ezh2, endogenous (from UniProt Q61188 1-746)”, the binding entry is reported as “no binding”.
